In the assay the target is RLK20-nYFP (full-length RLK20) (rice). Briefly: split reporter; BiFC: RLK20-nYFP and RBOHB-cCFP in tobacco leaves by Agrobacterium-mediated transformation, fluorescence microscopy.

No constants are given. Whether binding was seen depends on the method and setting. Binding seen in cells or lysates may run through a third protein. A result given as binding can be weak or reduced; the word gives no strength. Where a sequence is shown, tags or fusion partners need not be part of it.

B1: RBOHB-cCFP (full-length RBOHB) (enzyme, UniProt Q5ZAJ0 1-905)
chain: MADLEAGMVAAATDQGNSTRSQDDAATLIPNSGNLGSSNRSTKTARFKDDDELVEITLDVQRDSVAIQEVRGVDEGGSGHGTGFDGLPLVSPSSKSGKLTSKLRQVTNGLKMKSSSRKAPSPQAQQSAKRVRKRLDRTKSSAAVALKGLQFVTAKVGNDGWAAVEKRFNQLQVDGVLLRSRFGKCIGMDGSDEFAVQMFDSLARKRGIVKQVLTKDELKDFYEQLTDQGFDNRLRTFFDMVDKNADGRLTAEEVKEIIALSASANKLSKIKERADEYTALIMEELDPTNLGYIEMEDLEALLLQSPSEAAARSTTTHSSKLSKALSMKLASNKEMSPVRHYWQQFMYFLEENWKRSWVMTLWISICIALFIWKFIQYRNRAVFGIMGYCVTTAKGAAETLKFNMALVLLPVCRNTITWIRSKTQVGAVVPFNDNINFHKVIAAGVAVGVALHAGAHLTCDFPRLLHASDAQYELMKPFFGEKRPPNYWWFVKGTEGWTGVVMVVLMAIAFTLAQPWFRRNKLKDSNPLKKMTGFNAFWFTHHLFVIVYTLLFVHGTCLYLSRKWYKKTTWMYLAVPVVLYVSERILRLFRSHDAVGIQKVAVYPGNVLALYMSKPPGFRYRSGQYIFIKCTAVSPYEWHPFSITSAPGDDYLSVHIRTRGDWTSRLRTVFSEACRPPTEGESGLLRADLSKGITDEKARFPKLLVDGPYGAPAQDYREYDVLLLIGLGIGATPLISIVKDVLNHIQGEGSVGTTEPESSSKAKKKPFMTKRAYFYWVTREEGSFEWFRGVMNEVSEKDKDGVIELHNHCSSVYQEGDARSALIVMLQELQHAKKGVDILSGTSVKTHFARPNWRSVFKKVAVSHENQRVGVFYCGEPVLVPQLRQLSADFTHKTNTRFDFHKENF
In the case of B1, the binding entry was “binds”.
